Test results from patent publication US11702449B2, “Angiogenesis-inhibiting peptide and composition for preventing and treating angiogenesis-related disease comprising same as active ingredient” (AVIXGEN INC., priority 2015, dated 2023).
At least one peptide structure holds a part that was inferred or is arguable (an end, a ring closure or a residue). Square brackets hold non-standard residues; d marks the D form. Peptide text beside a SMILES is read from it.

Key:
[1] = tested on: tumor vessels of HCT116 xenograft; test: Measurement of tumor angiogenesis (FITC-isolectin B4 staining); assay type: in vivo, mouse; conditions: FITC-isolectin B4 staining of tumor tissue
Protocol: Tumor tissue was fixed with 10% formalin, and inserted into paraffin. A slide was prepared using a tumor tissue section, immersed in xylene to remove paraffin, and rehydrated by stepwise treatment with 100%, 95%, 80%, and 70% ethanol. Afterward, the slide was washed with deionized water several times at room temperature. To inhibit the intracellular activity of a peroxidase, the tissue section was reacted in 0.3% hydrogen peroxide-containing methanol for 15 minutes, and washed with PBS three times. The tissue section was reacted in 3% goat serum-containing PBS for 2 hours at room temperature, and reacted with FITC-isolectin B4 ([…]; Vector Laboratories) for 1 hour. The tissue section was washed with PBS three times and then a permanent slide was prepared using a cryo-mount solution (OCT mouting medium, Tissue Tek, Sakura Finetek), and then tumor vessels were visualized using a fluorescence microscope.

[2] = tested on: HUVECs; test: Tube formation of vascular endothelial cells on Matrigel (VEGF-induced); assay type: cell-based, human
Protocol: A degree of tube formation of HUVECs was determined using growth factor-reduced Matrigel. 250 μl of the Matrigel (10 mg protein/ml) was added into a 24-well plate to allow polymerization for 30 minutes at 37° C. HUVECs cultured in M199 (1% fetal bovine serum) medium for 6 hours were carefully transferred onto the Matrigel in the culture plate at a density of 2×10^5 cells/well, and VEGF (10 ng/ml) were cultured alone or with peptides (0.15 nM) at 37° C. for 20 hours. Meanwhile, peptides that were reacted in PBS or fresh human serum for 3 hours were also used. The degree of tube formation of HUVECs was visualized using an inverted phase-contrast microscope, and a length of the formed tube was measured and quantified by Image-Pro Plus version 4.5 (Media Cybernetics, San Diego, Calif.).

[3] = tested on: HCT116 xenograft; test: Human colon cancer (HCT116) xenografted mouse model, tumor size and growth; assay type: in vivo; conditions: for effect on size and growth of tumor: once a day
Protocol: Human colon cancer cells (HCT116, 1×10^7 cells/100 μl) were subcutaneously injected into the left side of a nude mouse (BALB/c nu/nu, 6 week old, male), and then when a tumor volume reached at least 50 to 70 mm^3 (approx. 7 days), physiological saline (negative control), RLYE (SEQ ID NO: 2) (1.0 mg/kg), R(D)LYE (SEQ ID NO: 6) (1.0 mg/kg) or Ac-RLYE (SEQ ID NO: 1) (1.0 mg/kg; abnormal, experimental group) was intraperitoneally injected once a day. A VEGF neutralizing antibody, bevacizumab, was intraperitoneally injected at 2 mg/kg twice a week (positive control). A tumor size was two-dimensionally measured using calipers. A tumor volume (mm^3) was calculated by the formula: width^2×length×0.52.

[4] = tested on: choroidal neovascularization; test: Laser-induced choroidal neovascularization mouse model; assay type: in vivo; conditions: 1 μl of 1.5 mM solution intravitreal, H&E area analysis
Protocol: To prepare a laser-induced choroidal neovascularization animal model, a Bruch membrane between a retinal layer and a choroidal layer was destroyed by irradiating the mouse retina with a diode laser at an intensity of 400 mW and a duration of 50 ms, and then choroidal neovascularization occurred over 14 days. The retinas of 6 week-old male C57BL/6 mice were irradiated with a laser under the above conditions, the formation of a lesion was confirmed through a safety inspection on day 10, and 1 μl of a 1.5 mM EYLR (SEQ ID NO: 5), RLYE (SEQ ID NO: 2) or Ac-RLYE (SEQ ID NO: 1) solution was intravitreally injected. Here, the same amount of saline was injected into the control group. After 4 days (14 days after the laser irradiation), an experiment for analyzing a therapeutic effect was carried out by extracting the eyeballs of the mice. […] Afterward, an image of a section with the largest choroidal neovascular membrane area was taken from each subject, and the area of the choroidal neovascular membrane was quantitatively analyzed using ImageJ program (NIH, Bethesda, Md., USA). In the saline-injected control group, the average of the choroidal neovascular areas was represented as 100%, and a therapeutic effect of each treatment group was analyzed. […] The retina flat-mounted complex tissue was observed under a fluorescence microscope and photographed.

[5] = tested on: retinal vascular leakage; test: Streptozotocin (STZ)-induced diabetic retinopathy mouse model, retinal vascular leakage; assay type: in vivo; conditions: STZ diabetic mice, 1 μl of 1.5 mM solution intravitreal, 24 hours
Protocol: A freshly prepared STZ solution (100 mM) in a citrate buffer (100 mM, pH 4.5) was intraperitoneally injected at 150 mg/kg into the mice, and to prevent hypoglycemic shock, 10% sucrose was sufficiently provided. After two days, blood glucose was measured using an Accu-Chek Performa blood glucose meter (Roche Diagnostics GmbH, Germany), and when non-fasting blood glucose within 1 to 2 weeks was maintained at 300 mg/dl or more, the mice were used as diabetic animal models. The diabetes-induced mice were anesthetized with 2% avertin, and 1 μl of a 1.5 mM EYLR (SEQ ID NO: 5), RLYE (SEQ ID NO: 2) or Ac-RLYE (SEQ ID NO: 1) solution was intravitreally injected. Here, the same amount of PBS was injected into the control group. The peptide was injected, and after 24 hours, 1 ml (1.25 mg) of FITC-dextran (250 kDa) was injected into the left ventricle of each mouse to allow circulation for approximately 5 minutes. The mice were euthanized by cervical dislocation, and the eyeballs were extracted and fixed in 4% paraformaldehyde at room temperature for 1 hour. The retina was isolated from the fixed eyeball to prepare a retinal flat mount, and vascular leakage was observed under a confocal microscope. Meanwhile, the fluorescence of FITC-dextran leaked from retinal vessels was measured using Fluoview software.

[6] = peptides pretreated with PBS for 3 hours
[7] = peptides pretreated with human serum for three hours
[8] = 1.0 mg/kg/day intraperitoneal, HCT116 nude mouse

SMILES | effect of inhibiting cancer angiogenesis compared with RLYE [1] | inhibition of VEGF-induced tube formation [2, 6] | inhibition of VEGF-induced tube formation [2, 7] | anticancer effect compared with RLYE [3, 8] | effect on size and growth of tumor [3, 8] | anticancer effect compared with bevacizumab ([3]; peptide 1.0 mg/kg/day i.p., bevacizumab 2.0 mg/kg twice a week) | effect on choroidal neovascularization [4] | effect on retinal vascular leakage [5]
CC(C)C[C@H](NC(=O)[C@H](N)CCCNC(=N)N)C(=O)N[C@@H](Cc1ccc(O)cc1)C(=O)N[C@@H](CCC(=O)O)C(=O)O [R(D)LYE] (H-[dR]LYE-OH; N-terminus and C-terminus assumed) | higher than that of RLYE | effectively inhibited | effectively inhibited | higher than that of RLYE | inhibited the size and growth of a tumor | a little lower than that of the positive control bevacizumab | – | –
CC(C)C[C@H](NC(=O)[C@@H](N)CCCNC(=N)N)C(=O)N[C@@H](Cc1ccc(O)cc1)C(=O)N[C@@H](CCC(=O)O)C(=O)O [RLYE, Arg-Leu-Tyr-Glu, reference compound] (H-RLYE-OH; N-terminus and C-terminus assumed) | – | effectively inhibited | insignificantly inhibited | – | inhibited the size and growth of a tumor | – | effectively reduced | effectively inhibited
